Data: article PMC6510286
Results are given in words; binding and its absence hold for the method and conditions named. Binding seen in cells or lysates may run through a third protein. Some binding calls cover weakened binding; strength is not graded here.

Sequences of proteins named here, by UniProt entry; tags and fusion partners are left off.
UniProt Q93009: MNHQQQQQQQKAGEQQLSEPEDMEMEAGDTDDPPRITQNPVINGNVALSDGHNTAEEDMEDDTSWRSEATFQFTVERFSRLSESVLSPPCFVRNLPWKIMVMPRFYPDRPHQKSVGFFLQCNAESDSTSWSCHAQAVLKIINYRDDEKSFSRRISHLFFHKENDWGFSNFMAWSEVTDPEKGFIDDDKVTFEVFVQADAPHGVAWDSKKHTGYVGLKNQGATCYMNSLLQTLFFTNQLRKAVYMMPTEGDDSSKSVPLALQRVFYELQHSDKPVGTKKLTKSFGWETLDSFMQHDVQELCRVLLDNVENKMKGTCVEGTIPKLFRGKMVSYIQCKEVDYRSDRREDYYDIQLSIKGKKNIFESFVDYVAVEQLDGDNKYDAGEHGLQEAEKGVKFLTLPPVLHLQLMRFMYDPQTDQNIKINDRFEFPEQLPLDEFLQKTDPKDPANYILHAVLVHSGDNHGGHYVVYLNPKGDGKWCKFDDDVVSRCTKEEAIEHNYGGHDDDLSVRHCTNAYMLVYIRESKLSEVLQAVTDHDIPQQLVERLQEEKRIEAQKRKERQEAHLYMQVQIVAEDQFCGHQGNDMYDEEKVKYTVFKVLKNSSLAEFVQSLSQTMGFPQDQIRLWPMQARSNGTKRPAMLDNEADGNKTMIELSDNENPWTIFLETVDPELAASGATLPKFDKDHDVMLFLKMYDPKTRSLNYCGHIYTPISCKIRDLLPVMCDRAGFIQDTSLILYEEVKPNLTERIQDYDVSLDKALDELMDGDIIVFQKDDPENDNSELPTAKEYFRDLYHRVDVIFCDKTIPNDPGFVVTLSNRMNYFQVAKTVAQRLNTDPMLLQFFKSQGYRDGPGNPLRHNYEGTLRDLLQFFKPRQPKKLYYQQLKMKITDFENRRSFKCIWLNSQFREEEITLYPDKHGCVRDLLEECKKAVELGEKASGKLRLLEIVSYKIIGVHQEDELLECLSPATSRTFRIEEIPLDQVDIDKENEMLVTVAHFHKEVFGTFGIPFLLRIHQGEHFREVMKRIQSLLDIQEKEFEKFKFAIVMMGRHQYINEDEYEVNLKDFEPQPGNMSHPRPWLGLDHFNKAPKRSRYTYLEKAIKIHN
UniProt Q13547: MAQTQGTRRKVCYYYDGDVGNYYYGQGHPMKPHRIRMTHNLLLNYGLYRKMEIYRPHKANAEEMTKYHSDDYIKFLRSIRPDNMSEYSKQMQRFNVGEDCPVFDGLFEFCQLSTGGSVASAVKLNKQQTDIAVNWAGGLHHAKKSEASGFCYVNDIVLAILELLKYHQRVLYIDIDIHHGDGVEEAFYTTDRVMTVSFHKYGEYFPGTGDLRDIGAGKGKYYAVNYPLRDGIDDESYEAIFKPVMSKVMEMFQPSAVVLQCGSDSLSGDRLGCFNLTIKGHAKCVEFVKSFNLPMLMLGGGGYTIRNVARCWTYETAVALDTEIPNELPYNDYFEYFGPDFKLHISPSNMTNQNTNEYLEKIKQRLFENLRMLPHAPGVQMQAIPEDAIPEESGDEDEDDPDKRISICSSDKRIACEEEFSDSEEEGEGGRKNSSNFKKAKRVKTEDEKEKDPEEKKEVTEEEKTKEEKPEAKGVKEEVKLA
UniProt Q15910: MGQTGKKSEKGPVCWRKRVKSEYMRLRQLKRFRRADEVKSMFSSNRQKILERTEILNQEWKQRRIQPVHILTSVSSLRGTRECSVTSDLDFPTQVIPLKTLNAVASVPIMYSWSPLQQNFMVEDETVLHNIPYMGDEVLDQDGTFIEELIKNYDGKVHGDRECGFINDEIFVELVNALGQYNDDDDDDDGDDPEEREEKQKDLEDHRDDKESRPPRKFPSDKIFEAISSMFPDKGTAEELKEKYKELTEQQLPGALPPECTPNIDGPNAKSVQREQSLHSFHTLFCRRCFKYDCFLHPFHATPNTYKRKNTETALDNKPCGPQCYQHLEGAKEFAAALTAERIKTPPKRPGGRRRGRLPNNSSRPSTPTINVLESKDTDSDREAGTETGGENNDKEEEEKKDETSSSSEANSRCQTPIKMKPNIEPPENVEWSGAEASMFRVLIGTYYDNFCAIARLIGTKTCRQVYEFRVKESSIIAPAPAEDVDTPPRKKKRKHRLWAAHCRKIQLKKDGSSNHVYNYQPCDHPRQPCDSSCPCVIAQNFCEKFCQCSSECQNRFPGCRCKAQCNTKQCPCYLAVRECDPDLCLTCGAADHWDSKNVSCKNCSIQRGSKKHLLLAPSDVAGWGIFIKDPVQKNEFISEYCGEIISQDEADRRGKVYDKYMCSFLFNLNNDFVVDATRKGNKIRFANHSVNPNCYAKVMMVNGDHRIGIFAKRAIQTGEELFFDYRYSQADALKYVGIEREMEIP
UniProt Q15796: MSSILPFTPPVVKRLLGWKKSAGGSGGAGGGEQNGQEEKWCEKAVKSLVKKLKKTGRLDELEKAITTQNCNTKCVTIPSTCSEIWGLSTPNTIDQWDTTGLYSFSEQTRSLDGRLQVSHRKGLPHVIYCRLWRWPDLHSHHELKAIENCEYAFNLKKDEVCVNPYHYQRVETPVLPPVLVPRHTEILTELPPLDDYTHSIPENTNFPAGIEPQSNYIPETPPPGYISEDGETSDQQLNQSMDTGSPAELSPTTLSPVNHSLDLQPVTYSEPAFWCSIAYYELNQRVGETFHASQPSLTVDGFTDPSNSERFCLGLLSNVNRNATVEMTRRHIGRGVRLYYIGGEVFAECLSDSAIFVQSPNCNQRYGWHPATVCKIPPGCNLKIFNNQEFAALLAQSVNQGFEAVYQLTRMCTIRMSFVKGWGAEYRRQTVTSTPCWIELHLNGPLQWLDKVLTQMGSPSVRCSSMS
UniProt Q13485: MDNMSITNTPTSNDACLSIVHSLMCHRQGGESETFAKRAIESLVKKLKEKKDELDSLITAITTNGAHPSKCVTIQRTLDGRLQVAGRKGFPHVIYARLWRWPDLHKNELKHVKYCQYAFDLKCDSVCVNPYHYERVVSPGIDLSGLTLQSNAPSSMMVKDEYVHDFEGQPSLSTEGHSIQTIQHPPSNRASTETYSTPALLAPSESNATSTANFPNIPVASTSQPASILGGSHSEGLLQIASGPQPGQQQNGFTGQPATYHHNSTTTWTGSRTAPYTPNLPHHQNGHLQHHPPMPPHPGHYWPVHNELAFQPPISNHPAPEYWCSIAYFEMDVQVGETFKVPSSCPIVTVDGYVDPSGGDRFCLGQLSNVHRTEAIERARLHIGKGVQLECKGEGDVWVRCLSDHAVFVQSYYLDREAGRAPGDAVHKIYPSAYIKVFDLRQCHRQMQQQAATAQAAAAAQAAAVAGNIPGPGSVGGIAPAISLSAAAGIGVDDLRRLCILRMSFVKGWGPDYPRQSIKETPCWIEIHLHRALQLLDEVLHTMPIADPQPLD
UniProt P35222: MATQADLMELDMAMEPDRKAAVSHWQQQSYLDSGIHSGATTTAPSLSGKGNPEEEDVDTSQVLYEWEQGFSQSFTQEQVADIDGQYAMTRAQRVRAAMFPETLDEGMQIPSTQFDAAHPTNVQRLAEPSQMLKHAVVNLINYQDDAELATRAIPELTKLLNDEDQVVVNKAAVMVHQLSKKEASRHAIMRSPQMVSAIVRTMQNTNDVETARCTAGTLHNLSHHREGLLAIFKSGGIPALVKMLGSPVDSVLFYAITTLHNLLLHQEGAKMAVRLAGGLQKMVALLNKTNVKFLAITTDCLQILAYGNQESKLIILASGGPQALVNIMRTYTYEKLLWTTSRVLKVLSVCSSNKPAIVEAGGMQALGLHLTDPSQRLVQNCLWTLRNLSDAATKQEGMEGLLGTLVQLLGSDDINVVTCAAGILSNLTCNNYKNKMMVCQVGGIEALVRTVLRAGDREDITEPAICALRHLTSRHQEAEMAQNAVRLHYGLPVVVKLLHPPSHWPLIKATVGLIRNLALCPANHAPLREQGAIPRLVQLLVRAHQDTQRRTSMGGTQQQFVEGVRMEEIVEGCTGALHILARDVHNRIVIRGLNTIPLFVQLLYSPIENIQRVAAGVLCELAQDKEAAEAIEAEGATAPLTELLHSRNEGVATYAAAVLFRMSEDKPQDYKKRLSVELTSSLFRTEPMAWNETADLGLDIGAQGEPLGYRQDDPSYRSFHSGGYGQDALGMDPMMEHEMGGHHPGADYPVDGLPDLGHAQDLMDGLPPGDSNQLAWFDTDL

Experiments:
[1] = target: USP7 (human (endogenous, cell line not stated)) (UniProt Q93009); test: co-IP; endogenous proteins from cell lysates (cell line not stated); USP7 antibody or EZH2 antibody; cells without and with shUSP7 or shEZH2 knock-down; IgG as negative control; immunoblot
[2] = target: HDAC1 (human (endogenous in HepG2 and SW480)) (UniProt Q13547); test: co-IP; endogenous proteins from HepG2 nuclear extracts; antibody against EZH2, LSD1 or HDAC1 on protein G-sepharose, overnight at 4°C, washed in TBST (pH 7.2, 25 mM Tris-HCl, 150 mM NaCl, 0.5% Tween-20); IgG as negative control; immunoblot
[3] = target: EZH2 (human (endogenous in HepG2 and SW480)) (UniProt Q15910); test: co-IP; endogenous proteins from cell lysates (cell line not stated); USP7 antibody or EZH2 antibody; cells without and with shUSP7 or shEZH2 knock-down; IgG as negative control; immunoblot
[4] = target: EZH2 (human (endogenous in HepG2 and SW480)) (UniProt Q15910); test: co-IP; endogenous proteins from SW480 cells; IgG as negative control; immunoblot
[5] = target: EZH2 (human (endogenous in HepG2 and SW480)) (UniProt Q15910); test: co-IP; endogenous proteins from HepG2 nuclear extracts; antibody against EZH2, LSD1 or HDAC1 on protein G-sepharose, overnight at 4°C, washed in TBST (pH 7.2, 25 mM Tris-HCl, 150 mM NaCl, 0.5% Tween-20); IgG as negative control; immunoblot

binding [1] | binding [2] | binding [3] | binding [4] | binding [5] | Substance
binds | binds | – | – | – | SMAD2 (from UniProt Q15796 1-467)
binds | binds | – | – | – | SMAD4 (from UniProt Q13485 1-552)
– | binds | binds | binds | binds | β-CATENIN (from UniProt P35222 1-781)
